No constants are given. Whether binding was seen depends on the method and setting. Binding can be weak; no strength is given. Where a sequence is shown, tags or fusion partners need not be part of it.
Key:
[1] = molecular target: T1, MspA amino acids 2-84 with T18 tag fused at the C-terminus (S. aureus) (UniProt Q2FVZ6); test: two-hybrid; bacterial two-hybrid (BACTH), T25 and T18 fusions co-transformed in E. coli BTH101; dotted on LB with X-gal and 1-mM IPTG, 30°C for 24 h; three replicates
T1 sequence: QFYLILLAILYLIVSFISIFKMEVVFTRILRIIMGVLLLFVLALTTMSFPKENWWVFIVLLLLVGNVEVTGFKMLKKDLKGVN

Amino acid sequences for entries named in this document (tags omitted). A change or cut given only in a name is not applied to a line headed by its entry.
UniProt P0A068: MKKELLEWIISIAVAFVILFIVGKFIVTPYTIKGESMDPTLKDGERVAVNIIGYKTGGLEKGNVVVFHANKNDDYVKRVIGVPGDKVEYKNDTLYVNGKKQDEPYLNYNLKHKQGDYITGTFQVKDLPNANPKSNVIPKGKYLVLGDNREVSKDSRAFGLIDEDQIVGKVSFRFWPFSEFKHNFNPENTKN

[2] = molecular target: T2, MspA amino acids 25-105 with T25 tag fused at the N-terminus (S. aureus) (UniProt Q2FVZ6); test: as above
T2 sequence: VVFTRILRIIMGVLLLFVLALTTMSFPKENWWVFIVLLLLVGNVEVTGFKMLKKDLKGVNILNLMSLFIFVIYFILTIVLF

| Substance | binding [1] | binding [2] |
| --- | --- | --- |
| Extracellular SpsB domain (amino acids 38-191), BACTH fusion (from UniProt P0A068) (domain or fragment) | no binding | no binding |
| Flotillin (FloA), BACTH fusion (S. aureus) | no binding | no binding |
| Full SpsB sequence with T18 fused to N-terminus (from UniProt P0A068) (enzyme) | – | binds |
| Full SpsB sequence with T25 fused to N-terminus (from UniProt P0A068) (enzyme) | binds | – |
